At least one compound was matched to its structure with a doubt left.
System: histone H1 (glycation by ADP-ribose)
Assay: AGE-fluorescence screening of glycation inhibitors, histone H1 + ADP-ribose, 96 well microtiter plates
Type: biochemical, calf
Details: for AGE-fluorescence (day 5): 5 days incubation; for % inhibition: AGE-fluorescence day 5; for AGE-fluorescence (day 0): value (spread)
Protocol: A 96-well, microtiter plate was used to carry out 48 reactions in duplicate. […] A second pair of wells contains the reactants and the known glycation inhibitor aminoguanidine, and functions as a positive control. Histone H1 is commercially available, and can be prepared following the procedures set out in Johns, et al., Biochem J. 92:55-59(1964), which is incorporated by reference herein.
The reaction system is 50 mM potassium phosphate buffer, at pH 7.4 to which 1.5 mg/ml histone H1 and 1.0 mM ADP-ribose were added. Reaction volume was 300 ul. AGE-fluorescence was measured over time, with incubation at 37° C., at 355 nm (ex) and 405 nm (em). Upon comparison to the control, a test compound was deemed potentially positive if AGE-fluorescence was suppressed.
The histone H1 (1.5 mg/ml) was combined with 1 mM ADP-ribose, in […] KH2PO4 buffer (pH 7.4, 37° C., 0.015% NaN3 added, to inhibit microbial growth). This reaction mixture was added, to 96 well microtiter plates. Test compounds were added to the reaction mixture, at concentrations ranging from 1 to 10 mM, in reaction volumes of 300 ul. Texts were run in duplicate.
Accumulated protein damage was determined by measuring AGE-fluorescence, at wavelengths (λex=370 nm; λ em=440 nm. The fluorescence is suppressed in the presence of compounds with inhibitory activity. Assays were read on a conventional microtiter plate, with a filter setting that approached the above conditions (λ ex: 355 nm, λ […]: 405 nm), which is in the range of the broad excitation/emission maxima of AGE compounds.
The fluorescence was measured at the beginning, and after 5 days of incubation.
The known glycation inhibitor aminoguanidine was used as a control.

NC(N)=S [Thiourea]
AGE-fluorescence (day 5) (compound 1 mM): 18 (0.1) | % inhibition (compound 1 mM): 15% | AGE-fluorescence (day 0) (compound 1 mM): 1.1 (0.1) | AGE-fluorescence (day 5) (compound 5 mM): 15 (0.0) | % inhibition (compound 5 mM): 30% | AGE-fluorescence (day 0) (compound 5 mM): 1.1 (0.1) | AGE-fluorescence (day 5) (compound 10 mM): 11 (0.3) | % inhibition (compound 10 mM): 50% | AGE-fluorescence (day 0) (compound 10 mM): 1.1 (0.2)

Reference: patent US6716635B2, “Method for identifying regulators of protein-advanced glycation end product (protein-AGE) formation” (University of Kentucky Research Foundation, priority 2000, dated 2004)
